In PubChem BioAssay AID602254 (Broad Institute, 2012):
Hit rate of the full screen: of about 1,000 compounds, fewer than 10 were called active.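 How the source made its calls: active means fitted half-maximal concentration no higher than twice the top valid tested dose, with signal falling; inconclusive means flat curve with 30 to 70% inhibition, or poor fit; inactive means the rest.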 This is one part of the list. Measured potencies and affinities stand elsewhere.

These molecules were tested against Golgi-associated PDZ and coiled-coil motif-containing protein (Homo sapiens) (UniProt Q9HD26) (assay: CAL PDZ domain peptide-binding inhibitors, dose response, biochemical, fluorescence polarization, untagged CAL PDZ, cherry-pick, set 2 (AID 602254;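 further: 0% = DMSO neutral control and -100% = unlabeled peptide PRC23 positive control; more negative means stronger blocking of peptide binding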)). Settings: Purified CAL PDZ, TMR peptide fluorescence polarization; at 60 µM (top of the series).

Activity change, negative = inhibition, inactive:
O=C(C=C1CCN(c2ncc(C(F)(F)F)cc2Cl)CC1)NNC(=O)Nc1ccc(Cl)cc1 -1.48%
COCC(=O)N1CCC(Oc2ccc(C(=O)NCCCn3cccn3)cc2)CC1 -1.01%
CC1CCC(NC(=O)CCN2C(=O)C3CC=CCC3C2=O)CC1 (stereo not drawn) -1.4%
CC(C)(C)OC(=O)n1cc(C(=O)c2ccccc2O)cn1 1.29%
CC(=O)c1cccc(NC(=O)c2cc(=O)c3ccccc3o2)c1 -1.19%
COC(=O)c1ccc(C(=O)Nc2ccc3nc(-c4ccncc4)[nH]c3c2)cc1 1.34%
CN(C)S(=O)(=O)c1ccc(NC(=O)CN2CCCCCC2)cc1 4.04%
COc1ccccc1NC(=O)Nc1nnc(Cc2ccc(F)cc2)s1 -17.4%
Cc1cc(Br)ccc1NC(=O)CN1CCN(c2ccccn2)CC1 1.33%
CCOc1nc(OCC)nc(-n2cc(-c3ccccc3)nn2)n1 -3.83%
CC(C)(C)OC(=O)N1CCC(NC(=O)c2[nH]cnc2C(=O)Nc2cccc(Cl)c2)CC1 0.132%
CSCCC(NS(=O)(=O)c1ccc(C)cc1)C(=O)N1CCCC1 (stereo not drawn) 0.533%
COc1cc(S(=O)(=O)Nc2ccc(C(=O)NCC(=O)O)cc2)ccc1NC(C)=O -0.599%
COc1cc(OC)cc(C(=O)NNC(=S)NC(=O)c2cccnc2)c1 -0.291%
CCc1ccc(CN(C)Cc2nc(COc3ccccc3)no2)nc1 3.6%
Cc1cnc(NC(=O)c2ccccn2)s1 0.893%
O=C(c1cc(COc2c(F)cccc2F)on1)N(Cc1ccccc1)CC1CC1 -0.792%
COC(=O)c1cc(S(=O)(=O)NCCN2CCN(c3ccccc3F)CC2)c[nH]1 0.413%
CCOC(=O)c1sc2nc(CSc3ccccc3)[nH]c(=O)c2c1C 1.59%
O=C1NC(=O)/C(=C\c2ccc(O)cc2O)S1 -2.27%
COc1ccc(NC(=O)n2ncc3c(C)cccc32)cc1 2.29%
Cc1cc(=O)c(C(=O)O)nn1-c1cccc(C(F)(F)F)c1 1.63%
NS(=O)(=O)c1cccc(NC(=O)COC(=O)CCC2CCCC2)c1 0.176%
Cc1ccc(OCC(=O)N2CCN(C(=O)c3cccs3)CC2)cc1 0.824%
O=C(N/N=C/c1cccnc1)c1[nH]ncc1Br -2.47%
O=C(c1ccc(N2CCCC2=O)cc1)N1CCN(c2ccccc2F)CC1 -2.28%
O=C(COC(=O)c1cc(=O)[nH]c2ccccc12)Nc1cccc(S(=O)(=O)N2CCOCC2)c1 10.7%
COc1ccccc1Nc1n[nH]c(=S)s1 1.11%
CCOc1ccc(Cn2c(=O)sc3ccccc32)cc1OC 0.621%
O=S(=O)(c1cccc(-c2n[nH]c(=S)o2)c1)N1CCOCC1 -0.742%
COc1ccc(Nc2nc(N3CCN(C)CC3)nc3ccccc23)c(OC)c1 -0.989%
COC(=O)c1ccc(S(=O)(=O)NCCc2ccccc2OC)n1C -1.97%
COc1ccc(N2C(=O)CCC(C(=O)N3CCCCC3)C2c2ccc(F)cc2)cc1 (stereo not drawn) 0.905%
O=C(CCc1ccccc1F)N1CCN(c2ccc(C(F)(F)F)cn2)CC1 0.287%
COc1cc(SC)ccc1C(=O)OC(C)C(=O)Nc1ccc(NC(C)=O)cc1 (stereo not drawn) 1.9%
COC(=O)c1ccc(NC(=O)c2ccc(NC(=O)C3CCCO3)cc2)cc1 (stereo not drawn) 1.55%
COc1cccc(CN2CC(C(=O)NCCc3ccccc3C(F)(F)F)CCC2=O)c1 (stereo not drawn) 0.507%
Cc1ccnc2nc(C(=O)NCc3ccccc3)nn12 1.22%
Cc1c(C)n(Cc2ccc(F)cc2)c2ccc(C(=O)NCCN3CCOCC3)cc12 -1.37%
CC(C1CC1)N(Cc1ccccc1)C(=S)Nc1ccccc1Cl (stereo not drawn) 0.214%
Cc1cc(CN(C)C(=O)c2cc(COc3ccc4ncccc4c3)on2)on1 -10.6%
COCCCNC1CS(=O)(=O)CC1O (stereo not drawn) -0.331%
NC(=O)c1ccc(NC(=O)C2CCCO2)cc1 (stereo not drawn) -5.94%
COc1ccccc1CC(NC(C)=O)C(=O)NC1CCN(C(=O)Nc2ccccc2Cl)CC1 (stereo not drawn) -0.247%
CCNC(=O)c1ccccc1NC(=O)C1CC(=O)N(C(C)C)C1 (stereo not drawn) 2.07%
CC(Oc1ccc(Cl)cc1C(N)=O)C(=O)N1CCc2ccccc21 (stereo not drawn) -0.08%
Cc1nc(N)[nH]c(=O)c1Oc1cccc(C(F)(F)F)c1 1.66%
CCN(CC)S(=O)(=O)c1ccc(N2CCc3cc(OC)c(OC)cc3C2)nc1 5.3%
CC1CC(C)CN(CCCNS(=O)(=O)c2ccc3c(c2)CCN3C(=O)C2CC2)C1 (stereo not drawn) -2.92%
Cc1ccc(C)c(N(CC(=O)N2CCCC2)S(C)(=O)=O)c1 6.46%
O=C(Nc1cccnc1)c1cc(-c2ccc(Br)cc2)nc2ccccc12 2.59%
Cc1cccc(NC(=S)NCc2ccc3c(c2)OCO3)c1C 8.22%
COc1cccc(C(=O)COC(=O)c2ccc(NC(C)=O)cc2)c1 -1.68%
CCn1cc(C(=O)N[C@H](C(=O)O)C(C)C)c(=O)c2cc3c(cc21)OCO3 3.8%
CCCCN1CC(C)(C)Oc2cccc(F)c2S1(=O)=O 2.05%
Cc1cnc(NC(=O)NCC2CCCC(CNC(=O)Nc3ncc(C)s3)C2)s1 (stereo not drawn) -0.336%
COc1cc2c(cc1OC)C(c1ccc(Br)cc1)CC(=O)N2 (stereo not drawn) 2.27%
C/C(=N\OC(=O)c1cccc(C(F)(F)F)c1)c1sc(-c2ccccc2)nc1C -4.29%
CCc1ccccc1NC(=O)c1cnn(-c2ccccc2)c1C 6.77%
COc1ccc(/C=N/N2CCN(Cc3ccc(C)cc3)CC2)cc1Br 1.63%
Cc1ccc(Cn2c(=O)n(CCC(=O)NCc3ccc4c(c3)OCO4)c(=O)c3ccccc32)cc1 -1.22%
Cc1[nH]c2ccccc2c1C(=O)C(=O)NCCOc1ccccc1 4.7%
CCN(CC)S(=O)(=O)c1ccc(O)c(NC(=O)CN2CCc3ccccc3C2)c1 -0.945%
CCN(CC)CC(=O)NCC1(c2ccccc2)CCOCC1 -1.4%
CN(Cc1nc2ccccc2c(=O)[nH]1)C(=O)c1cccc(NC(=O)c2cccs2)c1 -0.333%
Cc1cccc(N2CCN(C(=O)c3cccc(S(=O)(=O)N4CCCCC4)c3)CC2)c1C -0.092%
Cc1cccc(C)c1NC(=S)NC(C)(C)CO 1.29%
O=C(Nc1ccccc1C(=O)O)c1ccc(NC(=O)C2CCCO2)cc1 (stereo not drawn) 3.45%
Cc1onc(-c2c(Cl)cccc2Cl)c1C(O)c1ccccc1 (stereo not drawn) 2.44%
CC(=O)c1cccc(CN2CCN(CCc3ccccc3)C(CCO)C2)c1 (stereo not drawn) -2.82%
Cc1c(C(=O)N2CCCCCC2)nnn1-c1nonc1N 0.528%
COc1ccc(S(=O)(=O)N2CCC[C@H]2C(=O)NCc2ccc(Cl)cc2)cc1 1.15%
Cc1cc(C)cc(-n2ncc3c2CCCC3NC(=O)C2CCC2)c1 (stereo not drawn) -1.74%
CCOc1c(C)cc(S(=O)(=O)NCc2ccccn2)c(C)c1C 0.83%
C=CCc1ccc(OCCCCN2CC(C)OC(C)C2)c(OC)c1 (stereo not drawn) 0.21%
CCOc1ccc(CCNC(=O)CCNS(=O)(=O)c2ccc3c(c2)CCN3C(C)=O)cc1OCC 0.309%
O=C(Nc1ccc(O)cc1)c1ccc(NC(=O)C2CCCO2)cc1 (stereo not drawn) -1.49%
Cc1ccc2cc(C(c3nnnn3Cc3ccccc3)N3CCc4ccccc43)c(=O)[nH]c2c1C (stereo not drawn) -2.21%
CCC(Oc1ccccc1C)C(=O)Nc1ccc(S(=O)(=O)Nc2cc(C)on2)cc1 (stereo not drawn) -0.121%
Cc1cc(C)nc(NC(=S)Nc2cccc(F)c2)c1 -0.702%
O=C(Nc1cccnc1)c1cc(-c2ccccc2)on1 -0.234%
O=C(CCCCn1c(=O)[nH]c2ccccc2c1=O)NCCC1=CCCCC1 -6.22%
COc1cc(-c2cc(C(=O)Nc3nc4ccccc4s3)c3ccccc3n2)cc(OC)c1OC 1.29%
COc1ccccc1OCCSc1nc2ccccc2n1CC(N)=O -3.42%
CCOc1ccc(NC(=O)CC2C(=O)N(c3cccc(OC)c3)C(=O)N2CCOC)cc1 (stereo not drawn) -0.986%
Cc1noc(C)c1COC(=O)CCc1nc2ccccc2c(=O)[nH]1 0.223%
C/C(=N\NC(=O)c1ccc2c(c1)OCO2)c1ccc2c(c1)OCO2 0.577%
O=C(CCCSc1nnnn1-c1cccc2ccccc12)c1ccc(F)cc1 -3.23%
COc1ccccc1NC(=O)CN1CCC(c2nc3ccc(C)cc3[nH]2)CC1 1.67%
O=C(Cc1csc(Nc2nc(=S)[nH]c3ccccc23)n1)N1CCN(c2cccc(Cl)c2)CC1 -1.08%
COc1cc(C(=O)NCC(=O)OCC(=O)c2ccc[nH]2)cc(OC)c1OC -0.612%
CCCN(CCC)CC(C)(C)NS(=O)(=O)c1ccc(Cl)cc1 -0.73%
O=C(Nc1cccc(O)c1)c1cc(-c2ccc3c(c2)OCO3)on1 21%

7 successive entries already listed, quoted:
Activity change, negative = inhibition, inactive:
CC(Oc1ccc(Cl)cc1C(N)=O)C(=O)N1CCc2ccccc21 (stereo not drawn) -0.08%
Cc1nc(N)[nH]c(=O)c1Oc1cccc(C(F)(F)F)c1 1.66%
CCN(CC)S(=O)(=O)c1ccc(N2CCc3cc(OC)c(OC)cc3C2)nc1 5.3%
CC1CC(C)CN(CCCNS(=O)(=O)c2ccc3c(c2)CCN3C(=O)C2CC2)C1 (stereo not drawn) -2.92%
Cc1ccc(C)c(N(CC(=O)N2CCCC2)S(C)(=O)=O)c1 6.46%
O=C(Nc1cccnc1)c1cc(-c2ccc(Br)cc2)nc2ccccc12 2.59%
Cc1cccc(NC(=S)NCc2ccc3c(c2)OCO3)c1C 8.22%
